Experimental data from publication PMC3228823.
These are yes or no findings as the source states them, for the method shown. Some results given as binding are weak or reduced against the parent protein; the word gives no strength. For some assays here: Sequences can lack the tags named with a protein.

Protein sequences, listed by entry. Tags and fused reporters are not part of them.
UniProt P04551: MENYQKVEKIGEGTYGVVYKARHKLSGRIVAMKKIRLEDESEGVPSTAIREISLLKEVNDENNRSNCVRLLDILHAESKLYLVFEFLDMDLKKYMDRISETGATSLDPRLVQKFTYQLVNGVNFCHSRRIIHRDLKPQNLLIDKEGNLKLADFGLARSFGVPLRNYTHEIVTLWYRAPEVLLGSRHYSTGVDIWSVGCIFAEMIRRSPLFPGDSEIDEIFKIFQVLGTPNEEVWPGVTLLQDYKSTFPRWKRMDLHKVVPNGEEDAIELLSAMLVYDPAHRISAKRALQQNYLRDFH

T1: Tea2p kinesin (Schizosaccharomyces pombe) (UniProt Q1MTQ1)
T1 sequence: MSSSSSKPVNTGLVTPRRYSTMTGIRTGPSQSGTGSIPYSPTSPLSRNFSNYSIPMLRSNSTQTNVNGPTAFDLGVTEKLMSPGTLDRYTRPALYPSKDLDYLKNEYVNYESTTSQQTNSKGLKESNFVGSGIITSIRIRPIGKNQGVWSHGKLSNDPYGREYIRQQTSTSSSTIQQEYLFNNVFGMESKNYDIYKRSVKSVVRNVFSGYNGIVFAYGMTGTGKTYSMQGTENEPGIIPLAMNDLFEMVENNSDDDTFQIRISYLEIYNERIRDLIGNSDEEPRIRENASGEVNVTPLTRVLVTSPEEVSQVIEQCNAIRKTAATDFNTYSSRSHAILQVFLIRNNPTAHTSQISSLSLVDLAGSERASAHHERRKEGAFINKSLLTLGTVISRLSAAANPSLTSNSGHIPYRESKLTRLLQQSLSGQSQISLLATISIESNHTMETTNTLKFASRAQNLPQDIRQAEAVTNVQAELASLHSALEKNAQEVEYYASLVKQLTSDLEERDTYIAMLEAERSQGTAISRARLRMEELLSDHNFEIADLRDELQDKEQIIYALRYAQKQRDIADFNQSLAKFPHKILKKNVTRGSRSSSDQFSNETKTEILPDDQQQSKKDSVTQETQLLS


Legend:
[1] = molecular target: T1, Tea2p kinesin (Schizosaccharomyces pombe); assay: RIp-chip (immunoprecipitation of the tagged bait, co-purified mRNAs read on DNA microarrays); bait immunoprecipitated from S. pombe extracts (antibody against protein A for TAP tags, 9E11 for myc tags); the partner protein is inferred from its mRNA; compared: +ATG and untranslatable -ATG constructs, cells with 1 mM puromycin (32°C, 15 minutes), extracts with EDTA
[2] = molecular target: Cdc2p cyclin-dependent kinase (Schizosaccharomyces pombe) (UniProt P04551); assay: as above

| binding [1] | binding [2] | Binder |
| --- | --- | --- |
| binds |  | Tip1p, protein of the CLIP-170 family (nascent peptide on the polysome) (protein, UniProt P79065 1-461) MFPLGSVVEVITGERGFVRYAGEVENRKGVYVGLELLPEFAEFGKNRGVVDGREYFKTKNNEKTGIFVPFDKCKLASSISSSPSPKIDGTAASIGMGFPPMSPNLQSSIPRLTNVSSSSNLSMNTISSTALTPTEKILQKRIEDLLYERQNHQQQLEEVLATVDQLQSLVTNFNDQQDEVDELRERITLKEERIQQMRNEASQRRFEFKTTIECLEESSNRAIETYENRIAELEAQLEMYMSGKSEDDLLFSLQQERDYALNQVEILQERVDTLMKQKANSSTANEKLSHMESSSPTLTNASFESPKRGKGSNDLPENHPQRRQTLEFYEIEIEVLREKVEKLQALSDEKDFYISKLEKSLDRNDTTPVPSDEKLSNYAAEKENLVSRISELEHTIEQLTINNERDNERMSPAEFELETTQEVEENDSDSHDDEETWCEVCETNNHSLQECPTVFGSTDEA |
|  | binds | Rum1p, CDK inhibitor (nascent peptide on the polysome) (protein, UniProt P40380 1-230) MEPSTPPMRGLCTPSTPESPGSFKGVIDASLEGNSSIMIDEIPESDLPAPQVSTFPPTPAKTPKKQLLPNLMLQDRSNSLERCMEEDREHNPFLSSSDNQLLSRKKRKPTPPPSDGLYYVFRGKRIKKSFRPGTDLSTFKPKLLFADSAPSSSSDNPTSSVDLNDYSQIGILPPNLNSIGNKMFSLKSRVPSSSSGSFVAPPPQMRLPAYSSPQKSRSNTKDENRHNLLR |
